Experimental data: publication doi:10.1101/467431
These are yes or no findings as the source states them, for the method shown.

Columns and labels:
Test in all cases: SEC
[1] = molecular target: Sca2 construct Sca_(1090-1515) (Rickettsia conorii) (UniProt Q92JF7)
[2] = molecular target: Sca2 construct Sca_(869-1060) (Rickettsia conorii) (UniProt Q92JF7)
[3] = molecular target: Sca2 C-terminal fragment, construct Sca_(868-1515) (Rickettsia conorii) (UniProt Q92JF7)

With “Sca2 N-terminal fragment, construct Sca_(34-670) (from UniProt Q92JF7 34-670) (domain or fragment)” the binding [1] was “no binding” and the binding [2] was “no binding”.
“Sca2 construct Sca_(34-400) (from UniProt Q92JF7 34-400) (domain or fragment)” was tested, and the binding [3] was “no binding”.
With “Sca2 construct Sca_(421-670) (from UniProt Q92JF7 421-670) (domain or fragment)” the binding [3] was “no binding”.
